{"sequences": {"note": "The chains behind the UniProt entries cited, without tags or fusion partners. Where a name states a change or a piece, a line headed by the entry shows the natural chain unless it says otherwise.", "UniProt Q14204": "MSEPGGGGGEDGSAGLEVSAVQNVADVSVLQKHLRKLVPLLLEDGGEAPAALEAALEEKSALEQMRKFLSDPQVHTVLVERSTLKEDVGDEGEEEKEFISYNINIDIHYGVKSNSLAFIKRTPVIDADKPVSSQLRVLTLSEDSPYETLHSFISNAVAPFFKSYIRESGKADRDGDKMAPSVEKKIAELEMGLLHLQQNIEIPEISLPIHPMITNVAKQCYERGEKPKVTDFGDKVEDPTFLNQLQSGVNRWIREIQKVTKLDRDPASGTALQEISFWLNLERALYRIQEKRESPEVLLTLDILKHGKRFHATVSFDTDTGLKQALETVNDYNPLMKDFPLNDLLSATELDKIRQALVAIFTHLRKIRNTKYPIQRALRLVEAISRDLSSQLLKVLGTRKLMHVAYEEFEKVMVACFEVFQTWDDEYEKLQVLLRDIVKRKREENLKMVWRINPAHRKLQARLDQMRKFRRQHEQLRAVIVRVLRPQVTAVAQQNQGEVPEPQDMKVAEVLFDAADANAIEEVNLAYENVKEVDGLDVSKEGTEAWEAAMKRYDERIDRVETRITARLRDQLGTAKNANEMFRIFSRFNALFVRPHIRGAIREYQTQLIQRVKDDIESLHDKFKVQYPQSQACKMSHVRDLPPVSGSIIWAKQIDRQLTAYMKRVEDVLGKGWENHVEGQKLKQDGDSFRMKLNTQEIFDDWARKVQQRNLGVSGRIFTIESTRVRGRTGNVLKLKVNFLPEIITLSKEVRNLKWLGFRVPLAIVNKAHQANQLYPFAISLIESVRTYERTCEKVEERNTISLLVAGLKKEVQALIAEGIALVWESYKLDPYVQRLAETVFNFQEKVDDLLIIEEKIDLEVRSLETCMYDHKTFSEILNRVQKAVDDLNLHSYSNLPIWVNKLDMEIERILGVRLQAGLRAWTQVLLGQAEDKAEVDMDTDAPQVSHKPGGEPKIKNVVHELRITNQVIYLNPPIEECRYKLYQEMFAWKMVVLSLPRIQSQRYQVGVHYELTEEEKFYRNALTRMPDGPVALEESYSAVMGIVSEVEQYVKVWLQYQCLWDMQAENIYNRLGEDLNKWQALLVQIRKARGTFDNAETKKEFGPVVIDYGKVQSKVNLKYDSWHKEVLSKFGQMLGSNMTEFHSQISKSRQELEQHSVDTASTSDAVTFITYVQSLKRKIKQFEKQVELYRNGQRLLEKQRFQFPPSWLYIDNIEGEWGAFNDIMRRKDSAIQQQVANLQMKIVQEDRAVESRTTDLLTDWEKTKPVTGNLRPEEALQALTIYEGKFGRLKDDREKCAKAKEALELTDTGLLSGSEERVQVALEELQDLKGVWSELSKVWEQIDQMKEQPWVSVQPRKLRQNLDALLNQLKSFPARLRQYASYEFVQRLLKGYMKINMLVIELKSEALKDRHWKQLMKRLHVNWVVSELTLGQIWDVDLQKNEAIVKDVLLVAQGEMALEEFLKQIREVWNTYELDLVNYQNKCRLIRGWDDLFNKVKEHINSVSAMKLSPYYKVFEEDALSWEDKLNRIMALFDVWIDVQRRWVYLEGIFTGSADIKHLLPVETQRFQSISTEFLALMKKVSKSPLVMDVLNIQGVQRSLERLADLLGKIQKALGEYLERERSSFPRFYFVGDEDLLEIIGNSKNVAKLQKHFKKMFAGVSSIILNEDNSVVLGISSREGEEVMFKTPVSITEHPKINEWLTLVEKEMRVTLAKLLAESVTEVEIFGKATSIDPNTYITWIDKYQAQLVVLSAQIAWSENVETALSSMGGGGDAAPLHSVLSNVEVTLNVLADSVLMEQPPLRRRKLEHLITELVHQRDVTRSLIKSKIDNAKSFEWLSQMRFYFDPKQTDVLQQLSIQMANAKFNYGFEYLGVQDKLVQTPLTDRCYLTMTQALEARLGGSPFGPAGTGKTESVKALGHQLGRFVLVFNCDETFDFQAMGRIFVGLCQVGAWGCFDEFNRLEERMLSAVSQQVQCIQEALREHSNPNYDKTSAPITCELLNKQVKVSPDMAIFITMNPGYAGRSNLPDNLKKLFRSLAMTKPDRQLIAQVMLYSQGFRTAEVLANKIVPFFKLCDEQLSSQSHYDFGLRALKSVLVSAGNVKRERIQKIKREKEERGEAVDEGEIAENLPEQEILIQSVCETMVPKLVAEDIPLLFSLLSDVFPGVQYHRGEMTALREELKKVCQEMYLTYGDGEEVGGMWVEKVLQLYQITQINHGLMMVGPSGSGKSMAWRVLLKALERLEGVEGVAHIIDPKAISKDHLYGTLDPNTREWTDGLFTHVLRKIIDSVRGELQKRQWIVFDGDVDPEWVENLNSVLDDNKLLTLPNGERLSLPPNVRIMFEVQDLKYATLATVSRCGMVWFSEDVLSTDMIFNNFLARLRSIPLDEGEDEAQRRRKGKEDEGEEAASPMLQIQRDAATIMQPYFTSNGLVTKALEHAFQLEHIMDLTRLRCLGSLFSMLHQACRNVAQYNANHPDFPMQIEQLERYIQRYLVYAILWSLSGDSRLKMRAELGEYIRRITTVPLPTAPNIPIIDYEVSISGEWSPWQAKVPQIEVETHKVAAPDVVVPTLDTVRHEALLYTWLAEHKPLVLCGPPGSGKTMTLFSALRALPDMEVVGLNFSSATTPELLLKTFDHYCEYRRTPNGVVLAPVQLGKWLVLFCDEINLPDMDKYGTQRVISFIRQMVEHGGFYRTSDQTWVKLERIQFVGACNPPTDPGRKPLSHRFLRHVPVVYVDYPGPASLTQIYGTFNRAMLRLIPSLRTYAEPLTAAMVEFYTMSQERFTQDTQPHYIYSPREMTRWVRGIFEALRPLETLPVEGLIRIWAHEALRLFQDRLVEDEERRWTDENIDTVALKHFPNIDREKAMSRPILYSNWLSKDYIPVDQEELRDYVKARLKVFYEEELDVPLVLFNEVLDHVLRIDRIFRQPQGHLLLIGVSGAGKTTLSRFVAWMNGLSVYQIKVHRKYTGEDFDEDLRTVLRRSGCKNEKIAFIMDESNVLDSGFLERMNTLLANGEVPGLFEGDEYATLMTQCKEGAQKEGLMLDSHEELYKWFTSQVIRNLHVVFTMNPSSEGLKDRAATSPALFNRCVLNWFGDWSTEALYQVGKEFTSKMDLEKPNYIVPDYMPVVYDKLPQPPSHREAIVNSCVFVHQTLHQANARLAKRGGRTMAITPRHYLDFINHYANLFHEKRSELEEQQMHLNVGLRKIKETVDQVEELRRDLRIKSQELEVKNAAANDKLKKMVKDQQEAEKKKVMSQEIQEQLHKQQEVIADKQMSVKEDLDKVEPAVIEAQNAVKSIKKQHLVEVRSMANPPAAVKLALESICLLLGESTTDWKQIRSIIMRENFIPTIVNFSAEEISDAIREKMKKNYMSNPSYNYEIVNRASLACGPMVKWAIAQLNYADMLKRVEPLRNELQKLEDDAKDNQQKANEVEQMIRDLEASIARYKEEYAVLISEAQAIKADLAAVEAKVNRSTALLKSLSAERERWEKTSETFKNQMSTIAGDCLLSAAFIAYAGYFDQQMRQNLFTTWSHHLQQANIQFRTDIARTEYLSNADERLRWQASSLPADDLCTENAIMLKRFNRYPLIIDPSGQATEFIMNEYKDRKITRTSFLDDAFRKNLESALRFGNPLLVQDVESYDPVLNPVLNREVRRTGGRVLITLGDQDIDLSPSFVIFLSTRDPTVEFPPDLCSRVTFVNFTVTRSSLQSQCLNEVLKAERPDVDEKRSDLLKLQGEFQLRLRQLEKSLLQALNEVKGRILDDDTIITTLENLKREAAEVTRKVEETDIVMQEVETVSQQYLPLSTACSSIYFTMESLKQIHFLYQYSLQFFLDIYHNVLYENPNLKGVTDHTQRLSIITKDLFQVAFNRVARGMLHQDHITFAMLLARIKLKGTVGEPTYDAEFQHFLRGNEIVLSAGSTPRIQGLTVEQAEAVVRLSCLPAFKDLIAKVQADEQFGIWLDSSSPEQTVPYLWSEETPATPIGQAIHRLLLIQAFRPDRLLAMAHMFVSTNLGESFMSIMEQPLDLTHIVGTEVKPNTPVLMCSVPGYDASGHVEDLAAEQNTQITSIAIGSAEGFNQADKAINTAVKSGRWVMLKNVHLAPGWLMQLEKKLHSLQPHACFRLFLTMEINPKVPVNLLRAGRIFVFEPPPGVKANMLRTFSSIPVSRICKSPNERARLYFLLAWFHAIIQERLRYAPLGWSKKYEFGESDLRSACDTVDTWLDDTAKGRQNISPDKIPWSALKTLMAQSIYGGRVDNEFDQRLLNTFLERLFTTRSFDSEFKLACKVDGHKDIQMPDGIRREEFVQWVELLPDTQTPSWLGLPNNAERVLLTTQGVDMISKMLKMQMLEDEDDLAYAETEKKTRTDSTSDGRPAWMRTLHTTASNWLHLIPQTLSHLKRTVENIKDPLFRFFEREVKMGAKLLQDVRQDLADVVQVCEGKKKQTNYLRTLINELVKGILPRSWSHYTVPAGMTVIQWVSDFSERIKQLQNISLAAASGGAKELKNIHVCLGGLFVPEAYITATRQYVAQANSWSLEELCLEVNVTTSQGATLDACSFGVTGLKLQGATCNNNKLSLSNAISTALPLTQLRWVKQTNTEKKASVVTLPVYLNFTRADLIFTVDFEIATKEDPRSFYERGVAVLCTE", "UniProt Q13409": "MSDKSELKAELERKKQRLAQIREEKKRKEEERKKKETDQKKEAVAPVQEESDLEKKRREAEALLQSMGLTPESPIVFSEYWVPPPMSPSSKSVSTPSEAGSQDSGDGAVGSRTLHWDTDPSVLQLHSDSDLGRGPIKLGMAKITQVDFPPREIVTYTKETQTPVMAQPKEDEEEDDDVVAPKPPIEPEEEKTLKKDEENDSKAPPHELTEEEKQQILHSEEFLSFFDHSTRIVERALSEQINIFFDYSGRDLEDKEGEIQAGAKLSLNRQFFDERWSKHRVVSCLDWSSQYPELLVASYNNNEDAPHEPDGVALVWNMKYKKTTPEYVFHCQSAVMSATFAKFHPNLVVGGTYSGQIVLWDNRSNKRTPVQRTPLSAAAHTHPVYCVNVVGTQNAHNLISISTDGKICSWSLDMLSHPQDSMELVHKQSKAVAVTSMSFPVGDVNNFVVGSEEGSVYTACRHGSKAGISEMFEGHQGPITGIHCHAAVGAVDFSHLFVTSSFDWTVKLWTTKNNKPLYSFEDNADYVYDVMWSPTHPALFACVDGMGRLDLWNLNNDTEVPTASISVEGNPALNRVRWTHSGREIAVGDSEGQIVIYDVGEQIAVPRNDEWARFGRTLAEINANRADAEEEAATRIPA", "UniProt O43237": "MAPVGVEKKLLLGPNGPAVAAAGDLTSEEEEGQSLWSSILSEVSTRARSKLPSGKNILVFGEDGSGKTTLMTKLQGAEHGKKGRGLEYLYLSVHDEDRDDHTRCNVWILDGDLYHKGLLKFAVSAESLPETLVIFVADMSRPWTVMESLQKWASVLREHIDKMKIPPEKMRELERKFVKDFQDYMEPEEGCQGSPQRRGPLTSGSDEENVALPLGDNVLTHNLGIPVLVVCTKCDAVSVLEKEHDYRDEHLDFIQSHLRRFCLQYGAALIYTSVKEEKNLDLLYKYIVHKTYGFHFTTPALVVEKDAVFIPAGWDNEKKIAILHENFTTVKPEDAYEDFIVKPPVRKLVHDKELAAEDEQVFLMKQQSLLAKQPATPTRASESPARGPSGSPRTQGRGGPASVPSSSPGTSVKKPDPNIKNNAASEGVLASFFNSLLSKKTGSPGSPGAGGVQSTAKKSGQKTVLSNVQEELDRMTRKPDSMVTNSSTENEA", "UniProt P63172": "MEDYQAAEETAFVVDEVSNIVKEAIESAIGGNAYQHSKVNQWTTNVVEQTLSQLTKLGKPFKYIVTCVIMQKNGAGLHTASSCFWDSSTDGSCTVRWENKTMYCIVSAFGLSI", "UniProt P63167": "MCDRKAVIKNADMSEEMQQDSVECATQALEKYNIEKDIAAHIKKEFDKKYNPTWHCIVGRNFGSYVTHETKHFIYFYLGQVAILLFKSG", "UniProt Q9NP97": "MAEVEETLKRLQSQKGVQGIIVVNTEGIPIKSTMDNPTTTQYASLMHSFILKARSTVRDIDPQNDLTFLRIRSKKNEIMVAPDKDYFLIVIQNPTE"}, "source": "paper doi:10.1101/683052", "target": "Ninl (human Ninl aa 1-702), HaloTag (human) (UniProt Q9Y2I6)", "assay": "pull-down", "note": "These are yes or no findings as the source states them, for the method shown. Some results given as binding are weak or reduced against the parent protein; the word gives no strength.", "data": [{"substance": "human full-length cytoplasmic dynein-1 (dynein), wild type (from UniProt Q14204;Q13409;O43237;P63172;P63167;Q9NP97) (complex)", "values": [{"measurement": "binding", "result": "binds"}]}]}
